PubChem BioAssay AID504834 (National Center for Advancing Translational Sciences (NCATS), 2011)
Hit rate of the full screen: of about 320,000 compounds, about 22,000 (6.9%) were called active. This list was built around the results that the source calls inconclusive (neither active nor inactive); the mix of calls is not that of the screen. The call rests on the fitted dose curve; in most records, active means well fitted inhibition curve with a large enough effect; inconclusive means small, poorly fitted or top-dose-only effect, or another doubt; inactive means no such curve, though single readings can be large or run the other way. Potencies of inconclusive entries are doubtful fits and often do not repeat.

Assay: Primary qHTS for delayed death inhibitors of the malarial parasite plastid, 96 hour incubation
Details: P. falciparum luciferase reporter growth; series mostly up to 28.7 µM
Outline: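 P. falciparum expressing integrated firefly luciferase, in erythrocytes at 2% hematocrit, 0.05% parasitemia, incubated with compounds 96 h at 37 C, 5% CO2. Growth inhibition read as loss of luminescence; two-generation exposure targets delayed-death apicoplast inhibitors.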
On the % scale 0 is the no-effect control and ±100 the full control effect; potency means the concentration at half of the fitted maximal effect.

SMILES	Potency	activity change, negative = inhibition
C(=N\Nc1nc2ccccc2s1)/c1ccc2c(c1)OCO2	inconclusive: 10.4 µM [inhibitor, single point]	–
CCCn1c(=O)c2ccccc2n2c(SCC(=O)NCc3cccs3)nnc12	inconclusive: 9.28 µM [inhibitor, single point]	–
CCOc1cccc(C(=O)Nc2cccnc2)c1	inconclusive: 18.5 µM [inhibitor, single point]	–
CC(=Nc1ccc(C)c(C)c1)C1=C(O)CCC1=O	inactive	–
COc1ccc(NC(=O)CSc2nc3ccccc3nc2N2CCCC2)cc1Cl	inactive	–
CC(C1CC1)N(Cc1ccccc1)C(=S)Nc1ccccc1Cl (stereo not given)	active: 11.7 µM	–
CC(C)NC(=S)NCc1cccnc1	inconclusive: 18.5 µM [inhibitor, single point]	–
Cc1ccc2c(c1)[nH]c1c(=O)n(CCN3CCCCC3)cnc12	inactive	–
O=C(CSc1ccc2nnc(-c3ccc(F)cc3)n2n1)NCc1ccco1	inactive	–
CCN1CCCc2cc(CN(CCN3CCOCC3)C(=S)Nc3ccc(OC)c(Cl)c3)ccc21	active: 18.5 µM	–
COc1ccc(NC(=O)C2CC(c3cc(OC)c(OC)c(OC)c3)=NO2)cc1OC (stereo not given)	inconclusive: 11.7 µM [inhibitor, single point]	–
CCn1c(COc2ccccc2C)nnc1SCc1nc2ccccc2c(=O)[nH]1	inconclusive: 4.65 µM [inhibitor, partial curve]	–
Cc1ccc(Cl)cc1N(CC(=O)NC(C)c1ccccc1)S(C)(=O)=O (stereo not given)	inactive	–
O=C(C1CCCCC1)N1CCN=C1SCc1cccnc1	inconclusive: 13.1 µM [inhibitor, single point]	–
CCOc1ccccc1C(=O)NC(C(=O)Nc1cccnc1)C(C)C (stereo not given)	inconclusive: 10.4 µM [inhibitor, single point]	–
CC(C)c1ccc(C(=O)NC(=S)NCc2cccnc2)cc1	inactive	–
O=C1NC(c2ccc3c(c2)OCO3)Oc2ccccc21 (stereo not given)	active: 5.22 µM	–
O=C(CCN1C(=O)/C(=C\c2ccccc2)SC1=S)Nc1ccc(C(=O)O)cc1	inactive	–
CN(CC(=O)Nc1ccc(Cl)cc1)S(=O)(=O)c1ccc2c(c1)n(C)c(=O)c(=O)n2C	inconclusive: 18.5 µM [inhibitor, single point]	–
Cc1cc(NCCOCCO)n2c(nc3ccccc32)c1C#N	active: 1.85 µM	–
CC(C)c1ccc(S(=O)(=O)N2CCC(C(=O)NCc3ccco3)CC2)cc1	active: 2.62 µM	–
CC(C)C(=O)N1CCN(c2ccc(NC(=O)c3ccco3)cc2Cl)CC1	inconclusive: 1.85 µM [inhibitor, full curve, poor fit]	–
COc1ccc(C(=O)N/C(=C\c2ccccc2)C(=O)Nc2cccc(C(=O)O)c2)cc1	inconclusive: 18.5 µM [inhibitor, single point]	–
COc1ccccc1NC(=O)/C=C/c1ccc(OC)c(S(=O)(=O)N2CCOCC2)c1	–	inactive: -4.51% [at 5.75 µM]

SMILES	Potency	activity change, negative = inhibition
CN1CCN(c2nc3c(c(=O)[nH]c(=O)n3C)n2Cc2cccc(Br)c2)CC1	inconclusive: 18.5 µM [inhibitor, single point]	–
O=[N+]([O-])CC(c1ccccc1)P(=O)(c1ccccc1)c1ccccc1 (stereo not given)	inconclusive: 14.7 µM [inhibitor, single point]	–
CCS(=O)(=O)c1nc(S(=O)(=O)c2ccc(Cl)cc2)c(N2CCC(C(N)=O)CC2)s1	inactive	–
Cc1ccc(-n2cc(CNCCc3ncc(C)[nH]3)c(-c3ccc(F)cc3)n2)cc1	inactive	–
CCCn1c(SCC(=O)Nc2cc(Cl)ccc2OC)n[nH]c1=O	inconclusive: 10.4 µM [inhibitor, partial curve, poor fit]	–
Cc1ccc(-c2ccccc2NC(=O)CS(=O)CC(=O)Nc2ccc(C)c(Cl)c2)o1 (stereo not given)	inactive	–
O=C(Nc1ccnn1C1CCN(C(=O)c2cccc(C(F)(F)F)c2)CC1)C1CC1	inconclusive: 14.7 µM [inhibitor, partial curve, poor fit]	–
Cc1ccc(C(=O)NC(=S)Nc2cc(-c3nc4ccccc4s3)ccc2C)cc1	inconclusive: 18.5 µM [inhibitor, single point]	–
CC(=O)c1ccc(NC(=O)C2CCN(S(=O)(=O)c3cccs3)CC2)cc1	inconclusive: 8.28 µM [inhibitor, partial curve, poor fit]	–
CCc1cccc2c(C#N)cn(CCOc3ccccc3OC)c12	inactive	–
CCOCCCNS(=O)(=O)c1ccc(NC(=O)C2CC(=O)N(c3ccc(C)cc3)C2)cc1 (stereo not given)	inconclusive: 10.4 µM [inhibitor, partial curve]	–
CCOc1cc(N2CCOCC2)c(OCC)cc1NC(=O)c1ccc(NC(C)=O)cc1	inconclusive: 5.86 µM [inhibitor, partial curve, poor fit]	–
O=C(COc1cccc2c1CCN(Cc1ccc(Br)cc1)C2=O)NCc1ccco1	inconclusive: 10.4 µM [inhibitor, partial curve]	–
COc1ccc(NC(=O)C(=S)N2CCCC2)cc1	inconclusive: 2.62 µM [inhibitor, full curve, poor fit]	–
O=C(CSc1n[nH]c(-c2ccco2)n1)Nc1ccccc1	inactive	–
COc1ccc(CCNC(=O)c2ccc3c(c2)OCCO3)cc1	inactive	–
O=C(CSc1ccc(C(F)(F)F)cc1[N+](=O)[O-])Nc1ccc2ccccc2c1	inactive	–
O=c1c2cc(N3CCOCC3)ccc2[nH]c(=S)n1Cc1cccc(Cl)c1	inconclusive: 0.0033 µM [inhibitor, full curve, poor fit]	–
CCOc1ccccc1OCC(=O)NCCc1ccc(S(N)(=O)=O)cc1	inactive	–
CNC(=O)c1ccccc1NC(=O)c1c(O)c2c([nH]c1=O)CCCC2	inactive	–
NC(=O)[C@H](Cc1cc2ccccc2s1)NC(=O)[C@@H]1CC2(CC(c3cccc(NC(=O)[C@@H]4CCC(=O)N4)c3)=NO2)CN1C(=O)/C=C/Sc1ccccc1 (stereo not given in full)	inconclusive: 13.1 µM [inhibitor, single point]	–
CC1CC(C)CN(CCCNC(=O)CN2C(=O)CSc3ccc(S(=O)(=O)N4CCOCC4)cc32)C1 (stereo not given)	inconclusive: 8.28 µM [inhibitor, partial curve]	–
CC(=O)Nc1ccc(C(=O)NCC(=O)OCc2c(F)cccc2Cl)cc1	inconclusive: 0.37 µM [inhibitor, partial curve, poor fit]	–
Cc1cc(C)cc(C(=O)Nc2nc3ccccc3[nH]2)c1	inconclusive: 11.7 µM [inhibitor, single point]	–

SMILES	Potency	activity change, negative = inhibition
O=C1/C(=C/c2ccccc2)SC(=S)N1N1C(=O)C2CC2C1=O (stereo not given)	inactive	–
Cc1cc(C)cc(NC(=O)CSc2nnc(CNC(=O)c3cccs3)o2)c1	inactive	–
O=C(Cn1nnc2ccccc21)c1ccccc1	inactive	–
COc1ccc2c(c1)c(=O)oc1c(C)c(OC(C)C(=O)NCC3CCC(C(=O)O)CC3)ccc12 (stereo not given)	inconclusive: 0.147 µM [inhibitor, full curve, poor fit]	–
COc1ccc(/C=C(\NC(=O)c2ccccc2)C(=O)NC2CCS(=O)(=O)C2)cc1 (stereo not given)	inactive	–
CC(=O)SC(C[N+](=O)[O-])c1cn(C(C)=O)c2ccccc12 (stereo not given)	inconclusive: 2.33 µM [inhibitor, full curve]	–
O=C(Nc1nc2ccc(SC(F)F)cc2s1)c1ccc(NS(=O)(=O)c2ccc(F)c(F)c2)cc1	inconclusive: 14.7 µM [inhibitor, partial curve, poor fit]	–
COC1C(OC(=O)/C=C/C=C/C=C/C=C/C(=O)O)CCC2(CO2)C1C1(C)OC1CC=C(C)C (stereo not given)	inconclusive: 19 µM [inhibitor, partial curve, poor fit]	–
CCn1c(-c2ccccc2Cl)nn(CC(=O)NCCc2ccccc2)c1=S	inconclusive: 7.38 µM [inhibitor, partial curve, poor fit]	–
O=C(C1=C[C@@H](c2coc3ccccc3c2=O)C[C@@H](OCCCCO)O1)N1CCN(Cc2ccc3c(c2)OCO3)CC1	active: 3.29 µM	–
COc1ccc(N(CC(=O)N2CCN(c3ccc(F)cc3)CC2)S(=O)(=O)c2c(C)noc2C)cc1	active: 1.85 µM	–
CN1\C(=C/C=C/C=C/C=[N+](C)C)C(C)(C)c2ccccc21	inconclusive: 14.7 µM [inhibitor, partial curve, poor fit]	–
CC(C)(C)n1nc2c(c1NC(=O)c1c(F)cccc1F)CS(=O)(=O)C2	inconclusive: 4.65 µM [inhibitor, partial curve]	–
O=[N+]([O-])c1ccc(-c2csc(Nc3ccccc3)[n+]2Cc2ccccc2)cc1	inconclusive: 18.5 µM [inhibitor, single point]	–
O=C(Cc1ccccc1)Nc1cccc(NC(=O)c2cccs2)c1	inconclusive: 18.5 µM [inhibitor, single point]	–
CC(=O)N1CCN(S(=O)(=O)c2cccc(C(=O)Nc3ccccc3N3CCCC3)c2)CC1	inconclusive: 5.22 µM [inhibitor, partial curve]	–
Oc1c(Cl)cc(Cl)cc1C(C#Cc1ccccc1)N1CCOCC1 (stereo not given)	inactive	–
CC(C)CNC(=O)NC1(C(F)(F)F)Oc2ccccc2O1	inactive	–
COC(=O)c1cc(C)sc1NC(=O)C1CC(=O)NN1Cc1ccccc1 (stereo not given)	inconclusive: 11.7 µM [inhibitor, single point]	–
CCCn1c(=O)c2c(nc3n2CCCN3Cc2ccccc2)n(C)c1=O	active: 13.1 µM	–
COc1ccccc1NC(=O)COc1ccc(-c2nn(C)c(=O)c3ccccc23)cc1	inconclusive: 10.4 µM [inhibitor, partial curve]	–
COc1ccc(-c2c(C)c3cc(O)ccc3oc2=O)cc1OC	inconclusive: 18.5 µM [inhibitor, single point]	–

Full records, looked up by structure:
CCOc1cc(N2CCOCC2)c(OCC)cc1NC(=O)c1ccc(NC(C)=O)cc1 reads Potency: inconclusive: 5.86 µM [inhibitor, partial curve, poor fit]
CN1CCN(c2nc3c(c(=O)[nH]c(=O)n3C)n2Cc2cccc(Br)c2)CC1 reads Potency: inconclusive: 18.5 µM [inhibitor, single point]
O=C1NC(c2ccc3c(c2)OCO3)Oc2ccccc21 (stereo not given) reads Potency: active: 5.22 µM
COc1ccccc1NC(=O)COc1ccc(-c2nn(C)c(=O)c3ccccc23)cc1 reads Potency: inconclusive: 10.4 µM [inhibitor, partial curve]
